Measured values: the supplement of paper PMC10849652
Some of the results follow.

Protein sequences, listed by entry. Tags and fused reporters are not part of them. Lines headed by an entry give the natural chain unless they say otherwise; changes in a name come on top.
UniProt P49427: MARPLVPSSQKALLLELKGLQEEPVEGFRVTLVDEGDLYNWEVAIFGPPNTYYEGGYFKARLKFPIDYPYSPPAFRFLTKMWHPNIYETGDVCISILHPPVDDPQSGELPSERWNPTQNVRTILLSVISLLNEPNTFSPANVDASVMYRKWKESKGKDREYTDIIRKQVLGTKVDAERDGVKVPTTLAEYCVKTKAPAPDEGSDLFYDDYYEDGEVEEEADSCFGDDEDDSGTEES
UniProt Q9NXV6: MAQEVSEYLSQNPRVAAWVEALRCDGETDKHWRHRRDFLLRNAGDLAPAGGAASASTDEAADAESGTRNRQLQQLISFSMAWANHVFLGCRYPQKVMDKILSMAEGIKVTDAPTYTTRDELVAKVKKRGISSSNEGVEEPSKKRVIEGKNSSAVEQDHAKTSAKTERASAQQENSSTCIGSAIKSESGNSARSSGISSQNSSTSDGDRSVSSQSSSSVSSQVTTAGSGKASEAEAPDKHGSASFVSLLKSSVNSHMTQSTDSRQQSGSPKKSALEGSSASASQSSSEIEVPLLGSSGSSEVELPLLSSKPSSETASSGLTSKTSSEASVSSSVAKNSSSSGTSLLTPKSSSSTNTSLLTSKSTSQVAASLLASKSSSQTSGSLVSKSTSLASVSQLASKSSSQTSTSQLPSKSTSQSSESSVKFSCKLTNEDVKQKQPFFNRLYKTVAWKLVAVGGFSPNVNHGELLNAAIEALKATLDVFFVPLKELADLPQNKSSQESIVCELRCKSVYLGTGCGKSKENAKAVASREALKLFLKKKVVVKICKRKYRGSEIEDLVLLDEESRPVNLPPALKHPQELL
UniProt Q9UPV0, whole entry, looked up: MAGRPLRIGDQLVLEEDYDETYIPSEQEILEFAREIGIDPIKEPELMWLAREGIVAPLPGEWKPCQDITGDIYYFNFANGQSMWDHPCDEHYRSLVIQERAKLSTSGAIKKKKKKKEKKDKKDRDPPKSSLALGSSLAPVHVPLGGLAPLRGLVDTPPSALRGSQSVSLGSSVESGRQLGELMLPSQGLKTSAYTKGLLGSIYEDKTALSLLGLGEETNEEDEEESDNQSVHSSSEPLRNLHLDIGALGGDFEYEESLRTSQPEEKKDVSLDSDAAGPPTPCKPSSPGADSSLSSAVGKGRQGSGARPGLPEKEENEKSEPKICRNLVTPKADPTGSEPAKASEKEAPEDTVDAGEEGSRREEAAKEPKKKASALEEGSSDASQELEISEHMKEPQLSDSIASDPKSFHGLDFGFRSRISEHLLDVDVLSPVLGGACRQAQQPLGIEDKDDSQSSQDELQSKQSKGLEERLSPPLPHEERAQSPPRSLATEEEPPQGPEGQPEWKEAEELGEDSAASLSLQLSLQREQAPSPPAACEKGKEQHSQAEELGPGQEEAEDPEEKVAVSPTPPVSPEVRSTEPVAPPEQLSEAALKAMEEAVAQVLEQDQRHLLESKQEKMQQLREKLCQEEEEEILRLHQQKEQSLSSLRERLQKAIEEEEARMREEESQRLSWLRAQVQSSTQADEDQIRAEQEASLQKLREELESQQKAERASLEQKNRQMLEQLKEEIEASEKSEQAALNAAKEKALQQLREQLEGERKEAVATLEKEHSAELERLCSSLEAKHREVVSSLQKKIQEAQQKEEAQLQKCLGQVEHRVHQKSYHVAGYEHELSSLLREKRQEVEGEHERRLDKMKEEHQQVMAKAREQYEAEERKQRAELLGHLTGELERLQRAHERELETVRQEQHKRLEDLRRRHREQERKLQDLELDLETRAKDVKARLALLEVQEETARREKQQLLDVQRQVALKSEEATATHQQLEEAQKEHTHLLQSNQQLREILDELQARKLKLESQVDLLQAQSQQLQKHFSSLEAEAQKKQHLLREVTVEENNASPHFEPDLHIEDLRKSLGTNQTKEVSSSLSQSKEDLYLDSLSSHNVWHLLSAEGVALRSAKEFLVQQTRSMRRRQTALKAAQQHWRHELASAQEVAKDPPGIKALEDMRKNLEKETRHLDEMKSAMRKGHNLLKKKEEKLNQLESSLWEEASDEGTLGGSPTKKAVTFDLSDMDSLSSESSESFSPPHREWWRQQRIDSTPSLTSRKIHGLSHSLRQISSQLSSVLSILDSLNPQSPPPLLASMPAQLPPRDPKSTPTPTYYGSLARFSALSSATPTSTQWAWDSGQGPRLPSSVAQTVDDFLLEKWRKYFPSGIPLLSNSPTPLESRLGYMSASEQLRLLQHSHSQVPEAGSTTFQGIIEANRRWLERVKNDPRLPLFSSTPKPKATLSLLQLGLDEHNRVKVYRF
UniProt Q6P2H3: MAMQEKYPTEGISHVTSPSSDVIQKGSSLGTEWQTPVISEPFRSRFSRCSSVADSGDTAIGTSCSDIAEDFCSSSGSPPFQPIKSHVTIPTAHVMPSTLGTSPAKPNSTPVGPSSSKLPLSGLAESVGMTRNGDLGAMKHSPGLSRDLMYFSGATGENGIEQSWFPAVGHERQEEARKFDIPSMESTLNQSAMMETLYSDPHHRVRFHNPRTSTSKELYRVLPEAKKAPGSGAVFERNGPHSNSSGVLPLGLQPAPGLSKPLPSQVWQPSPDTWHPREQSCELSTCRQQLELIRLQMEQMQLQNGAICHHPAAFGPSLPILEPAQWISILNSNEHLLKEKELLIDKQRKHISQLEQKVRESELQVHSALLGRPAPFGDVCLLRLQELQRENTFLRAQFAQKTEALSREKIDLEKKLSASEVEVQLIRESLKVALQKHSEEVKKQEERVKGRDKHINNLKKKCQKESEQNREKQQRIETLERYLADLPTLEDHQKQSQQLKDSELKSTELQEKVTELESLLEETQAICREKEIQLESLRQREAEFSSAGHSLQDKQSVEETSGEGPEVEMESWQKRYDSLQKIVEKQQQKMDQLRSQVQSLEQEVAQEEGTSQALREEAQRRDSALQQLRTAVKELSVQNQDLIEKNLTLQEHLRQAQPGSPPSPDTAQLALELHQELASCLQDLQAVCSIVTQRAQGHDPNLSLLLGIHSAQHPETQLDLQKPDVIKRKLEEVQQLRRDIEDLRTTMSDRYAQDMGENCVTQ
UniProt Q9UPN4: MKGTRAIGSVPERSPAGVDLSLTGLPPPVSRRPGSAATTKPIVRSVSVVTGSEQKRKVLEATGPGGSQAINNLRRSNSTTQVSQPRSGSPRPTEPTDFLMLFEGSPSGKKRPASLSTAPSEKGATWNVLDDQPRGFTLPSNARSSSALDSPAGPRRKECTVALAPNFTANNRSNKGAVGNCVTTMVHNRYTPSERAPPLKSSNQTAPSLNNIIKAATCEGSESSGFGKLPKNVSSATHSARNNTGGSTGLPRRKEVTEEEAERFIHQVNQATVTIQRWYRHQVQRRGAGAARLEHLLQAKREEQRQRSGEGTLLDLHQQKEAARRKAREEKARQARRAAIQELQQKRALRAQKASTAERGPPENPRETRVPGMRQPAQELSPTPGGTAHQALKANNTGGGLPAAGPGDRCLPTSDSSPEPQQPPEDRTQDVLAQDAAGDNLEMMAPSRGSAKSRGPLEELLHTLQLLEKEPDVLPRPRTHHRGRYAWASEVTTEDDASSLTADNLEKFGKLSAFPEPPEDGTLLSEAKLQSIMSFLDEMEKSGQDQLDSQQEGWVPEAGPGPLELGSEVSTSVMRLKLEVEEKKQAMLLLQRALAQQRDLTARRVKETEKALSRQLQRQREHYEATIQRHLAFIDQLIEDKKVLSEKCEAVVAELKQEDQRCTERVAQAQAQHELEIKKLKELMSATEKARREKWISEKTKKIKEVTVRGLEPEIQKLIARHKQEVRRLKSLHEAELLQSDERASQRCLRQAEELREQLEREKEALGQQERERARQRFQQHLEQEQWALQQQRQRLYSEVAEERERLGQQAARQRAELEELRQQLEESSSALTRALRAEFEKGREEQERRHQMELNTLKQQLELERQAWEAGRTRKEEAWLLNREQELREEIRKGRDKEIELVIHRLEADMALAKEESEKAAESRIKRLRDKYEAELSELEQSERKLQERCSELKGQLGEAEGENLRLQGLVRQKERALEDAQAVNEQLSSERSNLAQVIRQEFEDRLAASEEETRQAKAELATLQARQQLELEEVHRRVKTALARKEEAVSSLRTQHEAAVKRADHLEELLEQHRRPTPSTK
UniProt P60953, whole entry, looked up: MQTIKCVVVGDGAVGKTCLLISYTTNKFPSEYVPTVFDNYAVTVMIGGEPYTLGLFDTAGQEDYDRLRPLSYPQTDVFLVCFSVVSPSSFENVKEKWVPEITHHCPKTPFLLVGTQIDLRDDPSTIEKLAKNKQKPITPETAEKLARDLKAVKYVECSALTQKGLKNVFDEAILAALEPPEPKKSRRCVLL
UniProt Q8IW35: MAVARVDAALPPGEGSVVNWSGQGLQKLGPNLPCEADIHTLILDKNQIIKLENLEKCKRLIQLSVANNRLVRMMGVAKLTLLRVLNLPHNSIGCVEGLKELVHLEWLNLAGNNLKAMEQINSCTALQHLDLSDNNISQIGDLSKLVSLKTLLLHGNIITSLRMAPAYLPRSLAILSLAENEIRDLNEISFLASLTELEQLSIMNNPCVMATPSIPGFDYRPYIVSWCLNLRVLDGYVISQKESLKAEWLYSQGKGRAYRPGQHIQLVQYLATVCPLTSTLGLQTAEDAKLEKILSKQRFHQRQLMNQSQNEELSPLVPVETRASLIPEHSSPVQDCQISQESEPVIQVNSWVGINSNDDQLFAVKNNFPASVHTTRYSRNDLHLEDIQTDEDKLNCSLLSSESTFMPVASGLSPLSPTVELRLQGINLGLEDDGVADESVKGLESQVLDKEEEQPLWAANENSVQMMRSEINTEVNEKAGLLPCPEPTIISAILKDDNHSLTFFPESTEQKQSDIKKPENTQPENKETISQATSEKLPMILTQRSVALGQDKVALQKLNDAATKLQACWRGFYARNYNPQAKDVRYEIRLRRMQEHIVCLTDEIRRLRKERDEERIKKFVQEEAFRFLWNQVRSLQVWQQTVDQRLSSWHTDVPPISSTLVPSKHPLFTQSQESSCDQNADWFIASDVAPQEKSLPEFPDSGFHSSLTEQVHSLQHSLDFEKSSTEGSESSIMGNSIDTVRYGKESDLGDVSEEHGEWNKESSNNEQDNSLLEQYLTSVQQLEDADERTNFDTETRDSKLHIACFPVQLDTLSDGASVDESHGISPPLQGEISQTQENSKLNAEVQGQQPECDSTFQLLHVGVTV
UniProt Q9BYV8: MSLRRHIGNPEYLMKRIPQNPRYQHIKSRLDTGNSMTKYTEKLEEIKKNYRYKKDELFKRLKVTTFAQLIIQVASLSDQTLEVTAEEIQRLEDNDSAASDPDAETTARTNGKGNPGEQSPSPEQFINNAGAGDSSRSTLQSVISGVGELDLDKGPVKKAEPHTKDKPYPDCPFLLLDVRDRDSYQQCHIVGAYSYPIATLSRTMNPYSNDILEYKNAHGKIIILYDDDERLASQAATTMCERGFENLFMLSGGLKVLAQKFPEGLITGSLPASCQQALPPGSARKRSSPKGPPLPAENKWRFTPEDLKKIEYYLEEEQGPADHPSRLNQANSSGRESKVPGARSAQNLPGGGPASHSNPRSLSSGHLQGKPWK
UniProt Q9BUX1: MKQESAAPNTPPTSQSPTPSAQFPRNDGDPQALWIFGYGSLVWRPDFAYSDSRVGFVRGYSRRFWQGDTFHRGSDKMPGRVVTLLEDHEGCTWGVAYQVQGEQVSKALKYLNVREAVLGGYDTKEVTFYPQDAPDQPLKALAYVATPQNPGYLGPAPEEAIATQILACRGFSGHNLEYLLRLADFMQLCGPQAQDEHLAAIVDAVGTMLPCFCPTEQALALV
UniProt O95674: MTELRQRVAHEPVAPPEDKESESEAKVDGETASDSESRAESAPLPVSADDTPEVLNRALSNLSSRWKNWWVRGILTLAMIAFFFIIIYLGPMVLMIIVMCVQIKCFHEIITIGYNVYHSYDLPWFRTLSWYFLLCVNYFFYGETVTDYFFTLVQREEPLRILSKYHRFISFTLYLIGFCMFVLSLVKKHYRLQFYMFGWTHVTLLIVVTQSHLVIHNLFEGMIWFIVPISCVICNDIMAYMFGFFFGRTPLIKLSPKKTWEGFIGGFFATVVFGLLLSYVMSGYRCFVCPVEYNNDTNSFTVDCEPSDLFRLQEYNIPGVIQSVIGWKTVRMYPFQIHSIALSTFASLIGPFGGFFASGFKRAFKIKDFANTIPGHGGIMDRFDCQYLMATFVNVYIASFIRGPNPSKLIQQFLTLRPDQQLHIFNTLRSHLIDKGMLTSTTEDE
UniProt P50750, whole entry, looked up: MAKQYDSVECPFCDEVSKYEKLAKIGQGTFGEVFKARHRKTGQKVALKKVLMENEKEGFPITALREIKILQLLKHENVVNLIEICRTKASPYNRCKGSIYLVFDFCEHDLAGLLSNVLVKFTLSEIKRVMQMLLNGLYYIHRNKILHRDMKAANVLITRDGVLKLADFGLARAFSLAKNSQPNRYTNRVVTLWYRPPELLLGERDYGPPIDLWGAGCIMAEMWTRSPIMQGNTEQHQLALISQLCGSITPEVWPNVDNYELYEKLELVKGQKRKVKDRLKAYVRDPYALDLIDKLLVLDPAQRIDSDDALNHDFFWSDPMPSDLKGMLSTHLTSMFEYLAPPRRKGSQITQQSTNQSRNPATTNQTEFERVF

Compound: C1=CC=C(C=C1)[C@H](COC2=CC3=C(C=C2)NC(=O)N3)NC(=O)C4=CC=CN(C4=O)CC5=CC(=C(C=C5)F)F
Assay: log2 fold change, soluble protein after heating vs DMSO (PISA); higher = thermal stabilisation; K562 lysate, 10 uM; active = over 0.2 and 3.5 SD of the protein, either way, in both replicates (recomputed)
Outline: (§1)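 The values are log-two fold changes in thermal stability compared with solvent controls and come from duplicates. They were obtained by TMTpro 16plex LC-MS/MS, with channel sums equalised, on the supernatant after 21,000xg for 90 min. That supernatant came from crude K562 extract at 1 mg/mL protein treated with 10 μM compound for 30 min, heated for 3 min across 48°C-58°C, pooled and brought to 0.5% NP-40 at 4°C.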

Target	log2 fold change
CDC34 (UniProt P49427)	inactive: -0.008
CDKN2AIP (UniProt Q9NXV6)	inactive: 0.01
CHAC2 (UniProt Q8WUX2)	inactive: 0.079
CEP164 (UniProt Q9UPV0)	inactive: -0.118
CEP55 (UniProt Q53EZ4)	inactive: 0.059
CFAP20 (UniProt Q9Y6A4)	inactive: 0.006
CFH (UniProt P08603)	inactive: 0.062
CEP85 isoform 2 (UniProt Q6P2H3)	inactive: -0.125
CENPJ (UniProt Q9HC77)	inactive: -0.004
CFDP1 (UniProt Q9UEE9)	inactive: 0.051
CEPT1 (UniProt Q9Y6K0)	inactive: -0.13
CEP120 (UniProt Q8N960)	inactive: -0.074
CEP131 (UniProt Q9UPN4)	inactive: -0.084
CDC42 isoform 1 (UniProt P60953)	inactive: 0.025
CDC27 isoform 2 (UniProt P30260)	inactive: -0.018
CFAP410 (UniProt O43822)	inactive: -0.04
CEBPB (UniProt P17676)	inactive: 0.063
CEP152 (UniProt O94986)	inactive: 0.024
CEP97 (UniProt Q8IW35)	inactive: -0.01

Target	log2 fold change
CEP41 (UniProt Q9BYV8)	inactive: -0.026
CHAC1 (UniProt Q9BUX1)	inactive: -0.14
CDC42BPA isoform 6 (UniProt Q5VT25)	inactive: 0.008
CENPK (UniProt Q9BS16)	inactive: 0.019
CDS2 (UniProt O95674)	inactive: 0.01
CDK9 isoform 2 (UniProt P50750)	inactive: -0.001
CD97 (UniProt P48960)	inactive: 0.018
CFL1 (UniProt E9PP50)	inactive: 0
CGGBP1 (UniProt Q9UFW8)	inactive: 0.131
CDCA3 (UniProt Q99618)	inactive: 0.05
CDC5L (UniProt Q99459)	inactive: -0.002
CDC25C (UniProt P30307)	inactive: 0.018
CDR2 (UniProt Q01850)	inactive: 0.025
CDCA5 (UniProt Q96FF9)	inactive: 0.141
CDK1 (UniProt P06493)	inactive: 0.037
CDC42 (UniProt P60953)	inactive: 0.048
CDC26 (UniProt Q8NHZ8)	inactive: 0.161
CDC73 (UniProt Q6P1J9)	inactive: -0.014
CDK5RAP3 isoform 4 (UniProt Q96JB5)	inactive: -0.011

Compound: CC1=C(SC2=C1C(=N[C@H](C3=NN=C(N32)C)CC(=O)N)C4=CC=C(C=C4)Cl)C
Assay: as above
Outline: as §1

Target	log2 fold change
CDC34 (UniProt P49427)	inactive: -0.019
CDKN2AIP (UniProt Q9NXV6)	inactive: 0.024
CHAC2 (UniProt Q8WUX2)	inactive: 0.005
CEP164 (UniProt Q9UPV0)	inactive: 0.148
CEP55 (UniProt Q53EZ4)	inactive: 0.058
CFAP20 (UniProt Q9Y6A4)	inactive: 0.008
CFH (UniProt P08603)	inactive: 0.049
CEP85 isoform 2 (UniProt Q6P2H3)	inactive: 0.045
CENPJ (UniProt Q9HC77)	inactive: -0.04
CFDP1 (UniProt Q9UEE9)	inactive: -0.03
CEPT1 (UniProt Q9Y6K0)	inactive: -0.017
CEP120 (UniProt Q8N960)	inactive: 0.097
CEP131 (UniProt Q9UPN4)	inactive: 0.054
CDC42 isoform 1 (UniProt P60953)	inactive: 0.018
CDC27 isoform 2 (UniProt P30260)	inactive: 0.025
CFAP410 (UniProt O43822)	inactive: 0.039
CEBPB (UniProt P17676)	inactive: -0.067
CEP152 (UniProt O94986)	inactive: -0.236
CEP97 (UniProt Q8IW35)	inactive: -0.024

Target	log2 fold change
CEP41 (UniProt Q9BYV8)	inactive: -0.06
CHAC1 (UniProt Q9BUX1)	inactive: 0.362
CDC42BPA isoform 6 (UniProt Q5VT25)	inactive: -0.003
CENPK (UniProt Q9BS16)	inactive: -0.009
CDS2 (UniProt O95674)	inactive: 0.004
CDK9 isoform 2 (UniProt P50750)	inactive: -0.043
CD97 (UniProt P48960)	inactive: 0.007
CFL1 (UniProt E9PP50)	inactive: -0.08
CGGBP1 (UniProt Q9UFW8)	inactive: -0.03
CDCA3 (UniProt Q99618)	inactive: 0.006
CDC5L (UniProt Q99459)	inactive: -0.008
CDC25C (UniProt P30307)	inactive: -0.011
CDR2 (UniProt Q01850)	inactive: -0.041
CDCA5 (UniProt Q96FF9)	inactive: -0.035
CDK1 (UniProt P06493)	inactive: -0.009
CDC42 (UniProt P60953)	inactive: -0.046
CDC26 (UniProt Q8NHZ8)	inactive: 0.001
CDC73 (UniProt Q6P1J9)	inactive: -0.011
CDK5RAP3 isoform 4 (UniProt Q96JB5)	inactive: -0.018
